From PubChem BioAssay AID589 (National Center for Advancing Translational Sciences (NCATS), 2007)
About 6,200 (11%) of roughly 59,000 compounds were called active. All entries are inconclusive by the source's own rule. Clear calls are listed elsewhere. No stated cut-off is given here; in the data, active means max dye-equivalent concentration above about 10 nM; inconclusive means mostly about 1.1 nM to 9.6 nM; inactive means weaker than that.

Assay: qHTS Assay for Spectroscopic Profiling in 4-MU Spectral Region
Conditions: compound autofluorescence, 340/450 nm, 4-MU equivalents; active compounds read high
From the text: NIH Molecular Libraries Screening Centers Network [MLSCN] NIH Chemical Genomics Center [NCGC] […] Occasionally, the artifactual effect may originate from the compounds own spectral or other biophysical properties which generally tend to track its assay concentration. Pre-screening/profiling the library with respect to the compounds spectral properties should help one exclude false positives early on. While the most informative fluorescent profiling data set is obtained by performing a full excitation and emission scan of each well by using a monochromator-based plate reader, such an approach is practical only on a very limited scale as scanning each well requires long time. An alternative approach, applied here, is to perform plate reader scans using selected excitation and emission wavelength pairs to generate a multidimensional relational database that correlates compound concentration and the respective relative fluorescence intensity at a given wavelength set. A standard curve of 4-methylumbelliferone (4-MU) present on each plate as six-point concentration series, was used to compute a normalized fluorescence response, termed dye-equivalent concentration, for each compound at each concentration. […]
In the case of `NC1CCCCC1.NP(=O)(O)N(CCCl)CCCl`, the max dye-equivalent concentration is reported as inconclusive: 5.3 nM.
